Data as given in the supplement of paper PMC11006884.
The list shows a part of the results, in another mix than the full data.

Protein sequences, listed by entry. Tags and fused reporters are not part of them. Lines headed by an entry give the natural chain unless they say otherwise; changes in a name come on top.
UniProt P31751: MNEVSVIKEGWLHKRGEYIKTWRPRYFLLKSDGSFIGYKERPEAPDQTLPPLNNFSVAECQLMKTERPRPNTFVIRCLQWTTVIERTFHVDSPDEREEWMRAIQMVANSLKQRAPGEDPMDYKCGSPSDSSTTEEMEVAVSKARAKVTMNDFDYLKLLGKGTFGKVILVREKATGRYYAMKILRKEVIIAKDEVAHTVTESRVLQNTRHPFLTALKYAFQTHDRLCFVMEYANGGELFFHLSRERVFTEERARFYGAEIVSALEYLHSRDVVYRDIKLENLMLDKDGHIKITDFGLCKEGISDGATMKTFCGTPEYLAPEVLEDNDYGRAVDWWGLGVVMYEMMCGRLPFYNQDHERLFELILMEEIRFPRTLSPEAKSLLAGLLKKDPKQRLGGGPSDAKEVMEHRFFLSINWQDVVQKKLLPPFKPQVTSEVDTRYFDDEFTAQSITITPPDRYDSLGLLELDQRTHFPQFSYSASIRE
UniProt P34932: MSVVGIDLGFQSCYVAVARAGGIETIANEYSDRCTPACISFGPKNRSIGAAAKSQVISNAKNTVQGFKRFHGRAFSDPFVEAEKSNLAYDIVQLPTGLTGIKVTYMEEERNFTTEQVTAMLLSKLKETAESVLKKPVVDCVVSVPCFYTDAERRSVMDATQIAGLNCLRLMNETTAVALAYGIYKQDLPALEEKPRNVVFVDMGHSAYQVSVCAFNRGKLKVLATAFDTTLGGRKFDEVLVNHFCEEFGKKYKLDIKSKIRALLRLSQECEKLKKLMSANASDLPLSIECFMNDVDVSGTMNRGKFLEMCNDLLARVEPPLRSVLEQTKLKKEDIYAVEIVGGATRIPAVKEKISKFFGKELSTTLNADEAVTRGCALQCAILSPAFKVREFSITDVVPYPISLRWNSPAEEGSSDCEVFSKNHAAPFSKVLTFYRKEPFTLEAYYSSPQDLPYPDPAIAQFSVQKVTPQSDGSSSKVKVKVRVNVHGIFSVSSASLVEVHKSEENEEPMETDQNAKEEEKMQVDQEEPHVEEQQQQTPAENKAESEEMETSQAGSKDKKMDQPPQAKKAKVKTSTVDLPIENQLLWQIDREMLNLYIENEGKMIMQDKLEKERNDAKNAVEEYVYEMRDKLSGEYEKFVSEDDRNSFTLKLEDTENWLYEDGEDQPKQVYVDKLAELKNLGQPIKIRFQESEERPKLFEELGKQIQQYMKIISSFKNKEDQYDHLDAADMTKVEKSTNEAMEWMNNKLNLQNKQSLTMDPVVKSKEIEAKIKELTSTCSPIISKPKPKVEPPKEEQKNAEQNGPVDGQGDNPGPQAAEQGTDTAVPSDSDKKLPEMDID
UniProt P33176: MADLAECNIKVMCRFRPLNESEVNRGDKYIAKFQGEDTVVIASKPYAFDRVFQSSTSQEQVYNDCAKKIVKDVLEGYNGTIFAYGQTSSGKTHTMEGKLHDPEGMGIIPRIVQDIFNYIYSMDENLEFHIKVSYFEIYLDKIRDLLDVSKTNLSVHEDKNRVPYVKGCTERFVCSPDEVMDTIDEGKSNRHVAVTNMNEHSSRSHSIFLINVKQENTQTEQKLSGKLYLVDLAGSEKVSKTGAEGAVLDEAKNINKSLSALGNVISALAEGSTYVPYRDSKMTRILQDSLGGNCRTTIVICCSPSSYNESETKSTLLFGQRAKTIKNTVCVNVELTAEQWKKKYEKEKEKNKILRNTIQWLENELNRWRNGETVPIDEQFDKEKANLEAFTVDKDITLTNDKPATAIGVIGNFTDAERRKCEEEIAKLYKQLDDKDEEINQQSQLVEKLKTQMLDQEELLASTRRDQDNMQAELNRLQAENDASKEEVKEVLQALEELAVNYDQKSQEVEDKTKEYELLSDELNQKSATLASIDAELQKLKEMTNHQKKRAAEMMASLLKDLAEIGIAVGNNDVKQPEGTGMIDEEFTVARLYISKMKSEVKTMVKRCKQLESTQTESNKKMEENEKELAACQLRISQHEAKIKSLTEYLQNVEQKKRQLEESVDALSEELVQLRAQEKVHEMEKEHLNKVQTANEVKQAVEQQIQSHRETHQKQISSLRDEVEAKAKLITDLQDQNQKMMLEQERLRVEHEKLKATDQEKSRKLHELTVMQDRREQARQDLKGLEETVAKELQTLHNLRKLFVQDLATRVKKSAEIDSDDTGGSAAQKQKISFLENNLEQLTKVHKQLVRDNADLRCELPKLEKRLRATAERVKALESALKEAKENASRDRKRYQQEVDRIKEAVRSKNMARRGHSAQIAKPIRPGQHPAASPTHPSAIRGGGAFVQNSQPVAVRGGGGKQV
UniProt P34897: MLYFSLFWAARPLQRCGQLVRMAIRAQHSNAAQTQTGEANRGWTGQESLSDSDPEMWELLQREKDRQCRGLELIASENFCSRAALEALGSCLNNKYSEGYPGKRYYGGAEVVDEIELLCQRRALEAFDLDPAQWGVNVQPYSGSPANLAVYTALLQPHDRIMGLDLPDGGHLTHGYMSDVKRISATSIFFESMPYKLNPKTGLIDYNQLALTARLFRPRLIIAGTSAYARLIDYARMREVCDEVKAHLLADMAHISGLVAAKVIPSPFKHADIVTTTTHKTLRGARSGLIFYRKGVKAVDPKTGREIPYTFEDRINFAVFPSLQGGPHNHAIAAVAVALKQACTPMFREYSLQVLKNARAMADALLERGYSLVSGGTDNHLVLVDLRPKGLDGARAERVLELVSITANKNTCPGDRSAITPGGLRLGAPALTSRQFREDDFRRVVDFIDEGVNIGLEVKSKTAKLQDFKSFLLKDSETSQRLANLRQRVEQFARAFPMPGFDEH
UniProt P35579, whole entry, looked up: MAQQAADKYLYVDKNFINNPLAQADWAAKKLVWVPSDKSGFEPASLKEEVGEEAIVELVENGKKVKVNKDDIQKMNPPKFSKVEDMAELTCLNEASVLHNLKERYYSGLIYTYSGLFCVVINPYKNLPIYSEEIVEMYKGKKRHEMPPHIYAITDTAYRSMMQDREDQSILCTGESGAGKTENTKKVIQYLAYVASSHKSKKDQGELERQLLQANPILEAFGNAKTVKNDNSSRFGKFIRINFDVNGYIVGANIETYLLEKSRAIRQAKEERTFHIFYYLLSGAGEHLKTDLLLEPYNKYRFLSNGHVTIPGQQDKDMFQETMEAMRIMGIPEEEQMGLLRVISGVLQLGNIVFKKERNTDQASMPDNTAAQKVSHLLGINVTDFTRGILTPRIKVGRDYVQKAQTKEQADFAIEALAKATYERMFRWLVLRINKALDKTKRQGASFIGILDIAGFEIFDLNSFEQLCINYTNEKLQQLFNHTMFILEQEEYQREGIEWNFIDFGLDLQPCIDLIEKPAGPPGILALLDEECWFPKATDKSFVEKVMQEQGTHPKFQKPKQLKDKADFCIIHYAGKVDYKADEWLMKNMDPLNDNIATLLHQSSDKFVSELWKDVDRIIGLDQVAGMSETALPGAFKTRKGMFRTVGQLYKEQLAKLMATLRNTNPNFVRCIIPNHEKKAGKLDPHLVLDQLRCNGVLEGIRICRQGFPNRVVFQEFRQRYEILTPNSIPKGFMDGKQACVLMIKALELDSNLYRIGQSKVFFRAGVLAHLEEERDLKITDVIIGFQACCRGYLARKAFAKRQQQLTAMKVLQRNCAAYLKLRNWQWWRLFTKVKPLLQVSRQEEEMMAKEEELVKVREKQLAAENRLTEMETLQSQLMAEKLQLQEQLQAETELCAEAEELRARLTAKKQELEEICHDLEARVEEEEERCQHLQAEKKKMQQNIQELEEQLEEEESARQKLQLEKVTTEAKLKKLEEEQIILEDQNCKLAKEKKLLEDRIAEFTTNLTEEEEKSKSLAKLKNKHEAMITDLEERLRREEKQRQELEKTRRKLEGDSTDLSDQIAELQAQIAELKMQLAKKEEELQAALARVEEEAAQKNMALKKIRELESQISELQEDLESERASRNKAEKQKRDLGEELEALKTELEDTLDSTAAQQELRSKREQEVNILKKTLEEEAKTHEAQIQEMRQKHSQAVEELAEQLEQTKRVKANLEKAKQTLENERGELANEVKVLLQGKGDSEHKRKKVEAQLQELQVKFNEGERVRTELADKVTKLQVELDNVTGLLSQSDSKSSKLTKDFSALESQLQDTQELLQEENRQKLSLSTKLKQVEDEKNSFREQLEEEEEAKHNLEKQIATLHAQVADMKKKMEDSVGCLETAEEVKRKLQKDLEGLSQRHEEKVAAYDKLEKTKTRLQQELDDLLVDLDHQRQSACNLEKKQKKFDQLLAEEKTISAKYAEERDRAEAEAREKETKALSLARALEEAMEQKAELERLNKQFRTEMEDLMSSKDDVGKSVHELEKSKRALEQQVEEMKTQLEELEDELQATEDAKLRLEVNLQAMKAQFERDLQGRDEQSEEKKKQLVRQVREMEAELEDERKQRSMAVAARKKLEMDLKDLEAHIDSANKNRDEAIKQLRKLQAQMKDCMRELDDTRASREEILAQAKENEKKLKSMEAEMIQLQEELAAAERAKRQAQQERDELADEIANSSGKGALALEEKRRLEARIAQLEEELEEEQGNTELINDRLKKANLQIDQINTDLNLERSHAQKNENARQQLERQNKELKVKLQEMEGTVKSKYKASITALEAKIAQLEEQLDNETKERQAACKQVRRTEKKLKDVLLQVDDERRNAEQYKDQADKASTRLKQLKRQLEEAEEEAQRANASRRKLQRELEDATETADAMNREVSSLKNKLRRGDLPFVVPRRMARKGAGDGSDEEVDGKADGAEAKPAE
UniProt P34896: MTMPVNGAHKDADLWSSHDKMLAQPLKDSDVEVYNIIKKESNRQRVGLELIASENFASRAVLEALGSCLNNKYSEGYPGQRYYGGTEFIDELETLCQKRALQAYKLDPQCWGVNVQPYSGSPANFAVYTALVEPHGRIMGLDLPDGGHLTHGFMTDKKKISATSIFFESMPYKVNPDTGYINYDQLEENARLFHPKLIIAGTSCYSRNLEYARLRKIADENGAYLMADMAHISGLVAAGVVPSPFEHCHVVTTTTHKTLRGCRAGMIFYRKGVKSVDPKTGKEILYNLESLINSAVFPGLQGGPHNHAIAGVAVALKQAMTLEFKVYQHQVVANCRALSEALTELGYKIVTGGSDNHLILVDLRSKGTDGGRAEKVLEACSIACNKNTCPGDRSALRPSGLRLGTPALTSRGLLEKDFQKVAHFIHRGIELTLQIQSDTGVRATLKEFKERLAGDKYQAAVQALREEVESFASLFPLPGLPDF
UniProt P41091, whole entry, looked up: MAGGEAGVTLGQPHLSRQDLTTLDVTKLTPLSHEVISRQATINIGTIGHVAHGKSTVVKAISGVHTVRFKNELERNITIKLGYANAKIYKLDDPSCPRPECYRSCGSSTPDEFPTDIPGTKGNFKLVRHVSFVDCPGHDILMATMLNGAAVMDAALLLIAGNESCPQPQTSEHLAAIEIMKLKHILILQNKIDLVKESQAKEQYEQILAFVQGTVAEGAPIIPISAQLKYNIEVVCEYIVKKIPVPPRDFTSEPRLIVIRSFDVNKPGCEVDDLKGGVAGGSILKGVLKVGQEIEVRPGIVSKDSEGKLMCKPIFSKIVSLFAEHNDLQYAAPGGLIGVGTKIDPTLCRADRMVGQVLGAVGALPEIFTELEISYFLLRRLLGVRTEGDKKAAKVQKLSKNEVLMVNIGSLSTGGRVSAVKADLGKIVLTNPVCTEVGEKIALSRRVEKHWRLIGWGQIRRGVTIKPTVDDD
UniProt P38606, whole entry: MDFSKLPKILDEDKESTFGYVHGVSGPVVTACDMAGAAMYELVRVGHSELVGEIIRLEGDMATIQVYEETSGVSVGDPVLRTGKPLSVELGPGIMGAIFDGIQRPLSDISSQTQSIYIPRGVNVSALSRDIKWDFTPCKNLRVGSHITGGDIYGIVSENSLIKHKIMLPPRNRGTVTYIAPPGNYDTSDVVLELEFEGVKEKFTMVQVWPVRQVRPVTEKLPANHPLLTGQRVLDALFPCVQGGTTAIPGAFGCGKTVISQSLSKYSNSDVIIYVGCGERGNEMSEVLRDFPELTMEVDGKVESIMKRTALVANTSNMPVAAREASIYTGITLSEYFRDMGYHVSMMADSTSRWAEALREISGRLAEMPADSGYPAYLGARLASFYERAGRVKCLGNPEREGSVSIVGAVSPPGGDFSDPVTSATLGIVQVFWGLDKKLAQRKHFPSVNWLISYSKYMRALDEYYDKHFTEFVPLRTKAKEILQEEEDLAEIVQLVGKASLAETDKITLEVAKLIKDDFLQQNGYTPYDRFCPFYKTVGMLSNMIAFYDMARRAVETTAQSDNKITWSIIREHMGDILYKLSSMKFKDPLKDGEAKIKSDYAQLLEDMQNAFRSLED
UniProt P35244: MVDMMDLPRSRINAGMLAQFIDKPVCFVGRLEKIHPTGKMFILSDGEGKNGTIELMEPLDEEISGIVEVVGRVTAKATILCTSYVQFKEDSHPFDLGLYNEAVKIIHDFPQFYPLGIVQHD

Compound: COC(=O)C#Cc1ccccc1 [methyl 3-phenylpropiolate]
Test: log2 ratio of iodoacetamide-alkyne labeling of the cysteine site, DMSO over compound (competition); higher = stronger covalent engagement of the cysteine by the compound, active = 1 or more
Conditions: 500 µM; treatment time 1 h; system: HEK293T cell lysate
How it was run: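 After 1 h at ambient temperature with vehicle or electrophile (500 µM), HEK293T lysate (2 mg/mL) was labelled for 1 h with iodoacetamide alkyne and clicked to sCIP-TMT reagents. Pooled samples were trypsin-digested overnight at 37 °C, streptavidin-enriched, acid-eluted and analysed by Orbitrap Eclipse LC-MS/MS with FAIMS, then quantified in FragPipe over three replicates with duplicate channels. A cysteine's log2 competition ratio is its mean control-channel over mean compound-channel reporter intensity. Cysteines quantified in only one replicate were not included.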

Target | log2 ratio of iodoacetamide-alkyne labeling
GPX4 C134 (UniProt P36969) | inactive: -0.0445
PSMC2 C236 (UniProt P35998) | inactive: 0.313
AKT2 C297 (UniProt P31751) | inactive: 0.698
HSPA9 C66 (UniProt P38646) | inactive: 0.274
HSPA4 C38 (UniProt P34932) | inactive: 0.635
RPL4 C96 (UniProt P36578) | active: 1.24
COIL C170 (UniProt P38432) | inactive: 0.546
KIF5B C330 (UniProt P33176) | inactive: 0.177
HNRNPH1 C122 (UniProt P31943) | inactive: -0.00137
MDH2 C212 (UniProt P40926) | inactive: 0.155
KIF5B C421 (UniProt P33176) | inactive: -0.155
UniProt P41214_C489 | inactive: 0.263
TMPO C341 (UniProt P42166) | active: 1.77
MPI C11 (UniProt P34949) | inactive: 0.0754
TIA1 C33 (UniProt P31483) | inactive: 0.0436
MTOR C674 (UniProt P42345) | inactive: 0.199
RFC4 C48 (UniProt P35249) | inactive: -0.199
TMPO C363 (UniProt P42167) | inactive: 0.444
SHMT2 C91 (UniProt P34897) | inactive: 0.316

Single values from above:
log2 ratio of iodoacetamide-alkyne labeling with PSMC2 C236 (UniProt P35998) reads inactive: 0.313
log2 ratio of iodoacetamide-alkyne labeling with MTOR C674 (UniProt P42345) reads inactive: 0.199

The list goes on.

Target | log2 ratio of iodoacetamide-alkyne labeling
MYH9 C694 (UniProt P35579) | inactive: 0.476
RRM2 C202 (UniProt P31350) | inactive: 0.439
STIP1 C461 (UniProt P31948) | inactive: -0.0506
RPL4 C250 (UniProt P36578) | inactive: 0.0328
SHMT1 C96 (UniProt P34896) | inactive: 0.0443
KIF5B C7 (UniProt P33176) | inactive: 0.0873
MTOR C300 (UniProt P42345) | inactive: 0.376
CTNNA1 C720 (UniProt P35221) | inactive: 0.223
MCM4 C509 (UniProt P33991) | inactive: 0.1
LRPPRC C1277 (UniProt P42704) | inactive: 0.0468
SERPINB6 C350 (UniProt P35237) | inactive: 0.174
ADSL C27 (UniProt P30566) | inactive: 0.0306
IARS C400 (UniProt P41252) | inactive: 0.208
EIF2S3 C96 (UniProt P41091) | inactive: 0.22
MDH1 C137 (UniProt P40925) | inactive: 0.0579
ATP6V1A C138 (UniProt P38606) | inactive: 0.943
HNRNPH1 C22 (UniProt P31943) | inactive: -0.0537
LONP1 C704 (UniProt P36776) | inactive: -0.000574
RPA3 C26 (UniProt P35244) | inactive: -0.139
